# Screening data, single-dose tests

The chains behind the UniProt entries cited, without tags or fusion partners. Residues count along the entry.
UniProt A4I591, 1-473: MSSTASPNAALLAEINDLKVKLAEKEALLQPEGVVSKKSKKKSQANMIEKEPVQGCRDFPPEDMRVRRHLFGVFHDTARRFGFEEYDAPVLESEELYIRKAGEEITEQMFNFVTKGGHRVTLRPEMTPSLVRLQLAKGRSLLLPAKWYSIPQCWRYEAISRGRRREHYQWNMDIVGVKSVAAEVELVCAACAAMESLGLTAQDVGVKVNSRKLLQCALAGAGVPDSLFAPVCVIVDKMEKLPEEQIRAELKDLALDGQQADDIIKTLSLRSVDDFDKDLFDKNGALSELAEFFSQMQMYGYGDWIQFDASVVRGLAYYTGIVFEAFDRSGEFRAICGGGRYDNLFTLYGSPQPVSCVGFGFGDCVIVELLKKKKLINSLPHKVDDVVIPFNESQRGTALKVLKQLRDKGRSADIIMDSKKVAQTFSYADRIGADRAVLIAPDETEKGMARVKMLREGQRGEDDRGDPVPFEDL
UniProt P9WNZ1, whole entry: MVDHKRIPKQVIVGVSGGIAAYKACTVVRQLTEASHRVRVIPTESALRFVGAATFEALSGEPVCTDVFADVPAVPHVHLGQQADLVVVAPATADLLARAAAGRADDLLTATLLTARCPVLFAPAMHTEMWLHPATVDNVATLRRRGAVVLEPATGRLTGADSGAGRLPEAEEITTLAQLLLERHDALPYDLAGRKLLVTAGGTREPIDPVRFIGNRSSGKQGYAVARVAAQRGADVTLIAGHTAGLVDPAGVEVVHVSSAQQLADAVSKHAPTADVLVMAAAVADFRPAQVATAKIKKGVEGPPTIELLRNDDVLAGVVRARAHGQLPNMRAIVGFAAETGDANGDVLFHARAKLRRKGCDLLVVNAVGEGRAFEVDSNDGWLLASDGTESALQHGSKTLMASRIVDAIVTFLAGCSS
UniProt Q8IDJ8, 1-583: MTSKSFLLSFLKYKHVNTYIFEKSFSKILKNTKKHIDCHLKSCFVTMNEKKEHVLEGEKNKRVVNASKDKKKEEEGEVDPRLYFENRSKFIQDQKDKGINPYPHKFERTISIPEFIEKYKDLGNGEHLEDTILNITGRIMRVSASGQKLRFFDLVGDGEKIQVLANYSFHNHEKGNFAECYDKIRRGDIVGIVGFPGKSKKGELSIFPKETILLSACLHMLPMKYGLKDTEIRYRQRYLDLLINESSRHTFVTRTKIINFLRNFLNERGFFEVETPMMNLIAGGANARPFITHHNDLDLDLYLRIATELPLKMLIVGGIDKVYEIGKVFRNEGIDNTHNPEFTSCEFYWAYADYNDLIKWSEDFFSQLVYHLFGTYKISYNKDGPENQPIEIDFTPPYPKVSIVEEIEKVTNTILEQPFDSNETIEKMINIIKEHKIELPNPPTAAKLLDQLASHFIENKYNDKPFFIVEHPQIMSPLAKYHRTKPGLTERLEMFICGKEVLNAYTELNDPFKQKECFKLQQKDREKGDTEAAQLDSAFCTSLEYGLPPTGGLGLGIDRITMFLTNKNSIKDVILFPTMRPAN
UniProt P9WFT3, whole entry: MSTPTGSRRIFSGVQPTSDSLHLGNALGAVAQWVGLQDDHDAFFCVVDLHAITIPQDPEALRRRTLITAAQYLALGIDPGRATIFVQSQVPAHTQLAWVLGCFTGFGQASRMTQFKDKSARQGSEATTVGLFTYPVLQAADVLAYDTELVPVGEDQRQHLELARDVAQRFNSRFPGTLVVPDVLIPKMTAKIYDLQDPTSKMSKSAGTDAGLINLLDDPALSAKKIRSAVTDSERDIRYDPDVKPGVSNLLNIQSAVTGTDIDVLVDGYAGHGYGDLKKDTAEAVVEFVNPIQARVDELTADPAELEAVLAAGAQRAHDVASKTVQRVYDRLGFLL

The values are deposited in ChEMBL (CHEMBL3988442, “University of Dundee, Small-Polar-MMV Screening Library” (2021)).

The filed quantity is “Percent Effect” (%). The record does not define 0% and 100%; most values in the screen are far below 50% and negative numbers occur (in some assays of this library far below -100). Compounds were drawn at random from those tested, without regard to their results. A dash means the value is not listed here; it may have been measured.

A: 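Enzyme assay of histidyl-tRNA synthetase; the read-out is not stated. Target: Histidine-tRNA ligase, Leishmania infantum (UniProt A4I591). Compounds at 30 µM. Higher reads as stronger inhibition (inferred: compounds with an IC50 in retests scored well above the rest). The assay is labelled LdHisRS but filed under L. infantum. About 69,000 compounds were tested under these conditions; 0.6% (about 410) showed 50% or more at least once.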
B: 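Coenzyme A biosynthesis protein CoaBC, Mycobacterium tuberculosis (UniProt P9WNZ1). Enzyme assay of CoaBC with a phosphate dye (Biomol Green) read at 650 nm. Compounds at 30 µM. Higher reads as stronger inhibition, judged from the few compounds that gave an IC50. Most strong results did not repeat in a second test. Size under these conditions: about 67,000 compounds, about 40 of them at 50% or above in at least one test.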
C: 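Lysine-tRNA ligase, Plasmodium falciparum 3D7 (UniProt Q8IDJ8). Enzyme assay of the cytosolic lysyl-tRNA synthetase in 384-well plates, read by luminescence. Tested at 30 µM. Direction is inferred from only a few compounds that gave an IC50; most scored high, so higher reads as stronger inhibition. About 69,000 compounds were tested under these conditions; 0.071% (about 49) showed 50% or more at least once.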
D: 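Enzyme assay of tryptophanyl-tRNA synthetase; the read-out is not stated. Target: Tryptophan-tRNA ligase, Mycobacterium tuberculosis (UniProt P9WFT3). Concentration: 10 µM. Direction is not recorded; retested compounds ran higher, which suggests that high means inhibition. About 65,000 compounds were tested under these conditions; 0.098% (about 64) showed 50% or more at least once.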

| compound | A | B | C | D |
|---|---|---|---|---|
| `CC1CN(C(=O)Nc2cc(C(F)(F)F)c[nH]c2=O)CC(C)(C)O1` (stereo unspecified) | 13.83 | 6.061 | -0.2112 | 1.806 |
| `Cc1cc(Br)ccc1C(=O)Nc1c(C(N)=O)n[nH]c1C` | 4.145 | 3.949 | 5.837 | -1.534 |
| `CCn1c(C)nnc1CN(C)C1CCN(Cc2ccccn2)C1` (stereo unspecified) | 8.197 | 6.867 | 5.083 | 1.143 |
| `CCNC(=O)CN1CCN(Cc2nc3c(F)cccc3n2CC)CC1` | 21.43 | 0.1267 | -2.369 | -2.95 |
| `CC(=O)N1CCN([C@@H]2CCC[C@@H](NC(=O)c3cccnc3)[C@H]2O)CC1` | 8.247 | 0.7264 | 3.404 | - |
| `Clc1cncc(N2CCCC2c2nnc3n2CCCCC3)n1` (stereo unspecified) | 26.09 | 4.358 | 5.899 | -0.06325 |
| `Cc1ccccc1-n1cc(CN(C)C(=O)CC2C(=O)NCCN2C)cn1` (stereo unspecified) | 6.557 | -0.1196 | 6.097 | 2.563 |
| `Cn1cncc1CN1CCC2(CC1)COCCN(S(C)(=O)=O)C2` | 11.54 | 2.788 | 3.103 | - |
| `COc1ccc(CN2CCCn3nnc(COCC4CC4)c3C2)cc1` | 7 | -2.843 | 2.38 | -5.383 |
| `O=C(c1ccc(O)cn1)N1CCOC(c2ccc(Cl)c(Cl)c2)C1` (stereo unspecified) | 6.349 | 0.9938 | 3.646 | -1.486 |
| `N#Cc1cccnc1N1CCCN(C(=O)CCn2cccn2)CC1` | 12.28 | 9.814 | 0.1515 | -4.401 |
| `O=C(OCCF)c1cccc(C(=O)N2CCCC2)n1` | -1.613 | -1.333 | -5.759 | -2.694 |
| `CN1C(=O)C(c2cccnc2)CC12CCN(C(=O)c1cccn1C)CC2` (stereo unspecified) | 18.87 | 6.472 | 5.268 | 2.623 |
| `CCc1n[nH]c(C2CN(CCS(C)(=O)=O)CCO2)n1` (stereo unspecified) | 16.52 | 8.015 | -1.097 | 0.8946 |
| `CCOCC1CN(Cc2cnn(C)c2)Cc2ncn(CC3CC3)c21` (stereo unspecified) | -3.922 | 0.1287 | -4.631 | 11.6 |
| `O=C(NCc1ccccc1)N1CCn2c(Cn3cccn3)cnc2C1` | 5.882 | 0.5076 | -6.246 | -2.387 |
| `Cc1nc(CC(=O)N2CCCC(n3ccnc3C(C)C)C2)cs1` (stereo unspecified) | 18.42 | 2.216 | 1.124 | -5.598 |
| `CS(=O)(=O)Cc1ccc(Cl)cc1NCc1ccccc1F` | 12.9 | -2.297 | 3.672 | -3.857 |
| `COc1ccc(Br)cc1CC(=O)N1CCCC1` | 4.225 | 7.78 | 3.617 | -5.897 |
| `O=C(NCCc1ccc(Cl)s1)N1CCS(=O)(=O)CC1` | 0.8696 | 3.944 | 0.5449 | -5.112 |
| `Cc1noc(NC(=O)c2ccc(C#N)cc2)n1` | 7.895 | 1.173 | 1.508 | -0.5303 |
| `CN(C)c1cc(CNC(=O)c2c(F)cccc2F)ccn1` | 16.07 | 4.773 | -0.08436 | -2.596 |
| `CC(=O)N1CC2(CCNCC2)c2cc(C)ccc21` | 20.59 | -2.792 | -4.992 | 0.08231 |
| `N#Cc1ccc(N2CCC3(CCC(=O)N3CCN3CCCC3)CC2)nc1` | 1.98 | 5.569 | 2.73 | - |
| `CCS(=O)(=O)CCN(CC1CCCO1)C1CCCC1` (stereo unspecified) | 14.29 | -0.4878 | 4.673 | 2.017 |
| `O=C(c1coc(COc2ccccc2F)n1)N1CCC[C@H]1CO` | 5.882 | 1.942 | 0.04438 | 1.514 |
| `O=C1CC(c2cccc(Cl)c2)c2snc(C(=O)O)c2N1` (stereo unspecified) | 1.724 | 4.157 | 1.448 | -1.425 |
| `O=C(c1ccncc1)N1CCOC2(CCCN(c3nncs3)C2)C1` (stereo unspecified) | 11.71 | 2.723 | 4.987 | - |
| `Cc1cc(C)n(CCC(=O)N2CCCC(n3cncn3)C2)n1` (stereo unspecified) | 22.97 | -2.999 | 0.03589 | 5.828 |
| `CC(C)c1nc(CN(C)C(=O)CNS(=O)(=O)c2cccs2)cs1` | 15.08 | 3.931 | 2.718 | 2.614 |
| `CCn1ccnc1CN1CCN(CC(O)Cn2cccn2)CC1` (stereo unspecified) | 0 | 0 | 0.4923 | -6.607 |
| `CCN(CC(=O)NC)S(=O)(=O)N1CCCCCC1` | 20.75 | -3.965 | 2.99 | -4.023 |
| `O=C(CNC(=O)C1CC1)NCC(F)(F)F` | 13.79 | -4.925 | 3.354 | 0.2244 |
| `Cc1cnc2c(S(=O)(=O)NCC3CCS(=O)(=O)C3)cccc2c1` (stereo unspecified) | 25.76 | -6.511 | -4.644 | -1.852 |
| `CC(C)c1nccn1CC(=O)Nc1ccnn1C(C)C(C)C` (stereo unspecified) | 19.57 | 4.496 | 5.525 | -1.286 |
| `CN(C)CCNC(=O)c1ccc(OC2CCN(S(C)(=O)=O)CC2)c(Cl)c1` | 22.64 | -23.79 | 6.969 | -0.5029 |
| `Cc1cnc(C(=O)NCc2ccnc(N(C)C)c2)cn1` | 4.425 | 2.35 | -0.3387 | -5.768 |
| `CC(C)COC(=O)N1CCN(C(=O)c2ccc3nccn3c2)CC1` | -4.167 | -1.202 | -1.212 | -3.311 |
| `Cc1cnn(CC2CCCN2C(=O)CN(C)C2CC2)c1` (stereo unspecified) | 8.475 | 1.837 | 0.6577 | -3.324 |
| `Cn1ccc(C(=O)N2CCN(c3cc(C#N)ccn3)CC2)cc1=O` | 14.29 | 1.542 | -0.9392 | 3.834 |
| `CC(C)(C)n1nc(C2CC2)cc1C(=O)NCC1(C(N)=O)CCOCC1` | 19.35 | 0.9828 | 3.232 | 1.923 |
| `Cc1nc(-c2cc(C(=O)N3CCCN(C)CC3)c3ccccn23)cn1C` | 22 | -29.3 | 4.743 | -3.66 |
| `CCC(CO)N(Cc1cccc(-n2cccn2)c1)Cc1ccccn1` (stereo unspecified) | 10 | 10.49 | -3.939 | 14.86 |
| `Cc1nccn1CC1CCN(C(=O)Cc2ccccc2)CC1` | 30.77 | 4.071 | 2.15 | 0.5882 |
| `COc1ccc(CN2C[C@@H]3CN(CCO)C[C@@H]3C2=O)cc1` | 19.42 | 5.344 | 9.086 | -6.225 |
| `O=C(NC(CO)CO)c1coc(COc2cccc(F)c2)n1` | 15.09 | 7.93 | 0.967 | -1.844 |
| `CCC(CC)C(=O)N1CCC2(CC1)c1ccccc1[C@@H](OC)[C@@H]2O` | 8.333 | 2.45 | 5.31 | 2.067 |
| `Cc1nc(CN2CCC(CNC(=O)C3(C)CCCC3)CC2)oc1C` | 13.11 | -6.438 | 4.839 | -7.124 |
| `CCc1cc(O)nc(C2CCCN2C(=O)c2cc(C)no2)n1` (stereo unspecified) | 2.857 | 0.1309 | 1.089 | 0.25 |
| `CC(C)c1nn(C)c(N(C)C)c1CNCc1ccc(N(C)C)nc1` | 17.86 | 8.745 | 0.3925 | -2.574 |
| `CN(C(=O)Cn1nc(-c2ccccc2)ccc1=O)C1CCS(=O)(=O)C1` (stereo unspecified) | 10.53 | -0.5051 | 4.801 | 1.891 |
| `CS(=O)(=O)N1CCC(CNC(=O)C2CCCC2)CC1` | 14.63 | -1.145 | 1.732 | -2.673 |
| `COCCCN1CCCN(C(C)C(=O)Nc2ccnn2C(C)C)CC1` (stereo unspecified) | 7.692 | 1.035 | 2.396 | -1.501 |
| `O=S(=O)(C1CC1)N1C[C@@H]2COC[C@]2(COc2ccccn2)C1` | 12.82 | 5.514 | 3.039 | -0.9682 |
| `c1cnnc(N2CCCC2CNCCc2cccs2)c1` (stereo unspecified) | 25 | -21.48 | 2.37 | 0.9372 |
| `Cc1cccc(OCCC(=O)N(C)CCNS(C)(=O)=O)c1C` | 17.14 | -1.215 | 5.653 | -1.377 |
| `CSc1ncc(Cl)c(C(=O)NC(Cc2ccccc2)C(=O)O)n1` (stereo unspecified) | -4.124 | -5.276 | 1.297 | - |
| `CC(=O)N1CCN(C(=O)Nc2ccc(Cl)cc2)[C@H]2CS(=O)(=O)C[C@H]21` | 8.197 | 6.1 | 5.345 | 1.464 |
| `FC(F)(F)c1cccc(C2(CNCc3ccncc3)CCOCC2)c1` | 9.615 | -2.692 | 2.685 | 3.752 |
| `Cc1cnc(-c2nc(NC3CCCC3)ncc2-c2onc(C)c2C)cn1` | 6.207 | 0.618 | 1.079 | 3.294 |
| `Cc1cc(NC(=O)CN2CCN(c3nccs3)C(C)C2)n(C)n1` (stereo unspecified) | -6.154 | 3.71 | 4.733 | -4.568 |
| `O=C(NCCCOc1cccnc1)c1cn(CCc2ccccc2)nn1` | 0 | 5.4 | 2.704 | -3.499 |
| `CCNC(=O)CCc1c(C)nc2cc(O)nn2c1C` | 32.88 | 1.205 | 3.304 | 6.475 |
| `CCCS(=O)(=O)N1CCC2(CCCN(Cc3cccc(F)c3F)C2=O)C1` (stereo unspecified) | 6.4 | -0.7317 | -1.616 | 0.9029 |
| `CCOCCCC(=O)Nc1[nH]nc(-c2ccncc2)c1C` | 20.63 | 0.6483 | 6.921 | -1.125 |

Repeated from the top, 4 entries:

Result for CC1CN(C(=O)Nc2cc(C(F)(F)F)c[nH]c2=O)CC(C)(C)O1 (stereo unspecified) was A: 13.83%; B: 6.061%; C: -0.2112%; D: 1.806%.
Result for Cc1cc(Br)ccc1C(=O)Nc1c(C(N)=O)n[nH]c1C was A: 4.145%; B: 3.949%; C: 5.837%; D: -1.534%.
Result for CCn1c(C)nnc1CN(C)C1CCN(Cc2ccccn2)C1 (stereo unspecified) was A: 8.197%; B: 6.867%; C: 5.083%; D: 1.143%.
Result for CCNC(=O)CN1CCN(Cc2nc3c(F)cccc3n2CC)CC1 was A: 21.43%; B: 0.1267%; C: -2.369%; D: -2.95%.